Measured values reported in patent US9872840B2, “Effect of garcinol in delaying the progression of diabetic nephropathy” (Delhi Institute of Pharmaceutical Sciences and Research, priority 2013, dated 2018).

Assay: Body weight of STZ diabetic rats after 8 weeks treatment
Format: in vivo, rat
Conditions: once daily for 8 weeks, garcinol 200 mg/kg, olmesartan 6 mg/kg/day, glimepiride 1 mg/kg/day, mean ± S.E.M., eight animals

CCCc1nc(C(C)(C)O)c(C(=O)OCc2oc(=O)oc2C)n1Cc1ccc(-c2ccccc2-c2nnn[nH]2)cc1 [Olmesartan, olmesartan medoxomil]
Body weight, after treatment: 216.7 ± 4.77 g

CCC1=C(C)CN(C(=O)NCCc2ccc(S(=O)(=O)NC(=O)N[C@H]3CC[C@H](C)CC3)cc2)C1=O [Glimepiride, glimepiride]
Body weight, after treatment: 208.3 ± 3.1 g
